Some of these results come from one statement about several compounds together. For at least one compound, name, drawing or mass did not settle the structure.
System: GM15851 normal lymphoid cells
Assay: DNA microarray of global gene expression, normal cells
Assay type: cell-based, human
Settings: GM15851 treated vs untreated; 632 genes at P≦0.005
Method: Effects of Polyamides on Global Gene Expression. DNA microarray analyses (see Example 10) were performed with RNA isolated from GM15850 FRDA and GM15851 normal lymphoid cells that were either untreated or treated with polyamides FA1 (at 1 and 2 μM) or FA2 (at 2 μM) for 7 days on Affymetrix Human Genome U133 Plus 2.0 GeneChips®. These chips contain […] oligonucleotides representing all or nearly all of the genes in the human genome). Experiments were conducted according to manufacturer guidelines. […] Although more genes were judged affected by FA1 at 1 μM than at 2 μM, this difference is largely due to genes whose mRNA levels change by less than […] in either direction, and thus are not highly significant. At 2 μM FA1, 15 genes were increased in expression by greater than 50% and one gene was decreased by 45%. […] For GM15851 cells, two genes were up regulated by FA1, and no genes were down regulated. (Note that the probability that the genes affected in GM15851 cells would be judged significant by chance at P≦0.005 is 0.8-1.0, based on analysis with BRB ArrayTools). […] Strikingly, binding sites for FA1 (5′-AAGAAGAAG-3′, SEQ ID NO: ______) are present in 18/20 genes whose mRNA levels are increased by 1.2-fold or greater in GM15850 cells, although this sequence would be expected to appear at random only once per 262,000 bp in genomic DNA.
DNA Microarrays. […]

CN(C)CCCNC(=O)CCNC(=O)c1nc(NC(=O)CCNC(=O)c2cc(NC(=O)c3nc(NC(=O)CCNC(=O)c4cc(NC(=O)c5nccn5C)cn4C)cn3C)cn2C)cn1C [FA1, ImPyβImPyβImβDp]
slope of the correlation between conditions (gene expression profile): −0.04 to +0.04

CN(C)CCCNC(=O)CCNC(=O)c1cc(NC(=O)CCNC(=O)c2nc(NC(=O)c3nc(NC(=O)CCNC(=O)c4cc(NC(=O)c5nccn5C)cn4C)cn3C)cn2C)cn1C [FA2, ImPyβImImβPyβDp]
slope of the correlation between conditions (gene expression profile): −0.04 to +0.04
